Measurements from publication PMC6753678, “Fueling Open Innovation for Malaria Transmission-Blocking Drugs: Hundreds of Molecules Targeting Early Parasite Mosquito Stages” (Frontiers in Microbiology, 2019).

system: P. berghei ookinete development; conditions: not given

| Structure (SMILES) | Assay tox ratio Pb ODA | Assay tox ratio Pb ODA (red: <10-fold selectivity; green: >10-fold) |
| --- | --- | --- |
| Cc1cc(=O)c2cc(-c3ccc(OC(F)(F)F)cc3)ccc2[nH]1 [TCMDC-137042] | 15.66 |  |
| Cc1cccc(Nc2nc(NCCCCN)nc3cc[nH]c(=O)c23)c1.O=C(O)C(F)(F)F [TCMDC-134946] | 9.44 |  |
| CCn1cc(C(=O)O)c(=O)c2cc(F)c(N3CCN(S(=O)(=O)c4ccc(N)cc4)CC3)cc21 [TCMDC-125809] | 102.29 |  |
| c1ccc(CCNc2ncnc3c2[nH]c2ccccc23)cc1 [TCMDC-124578] | 28.82 |  |
| Cc1occc1C(=O)Nc1nc(-c2ccccn2)nc2ccsc12 [TCMDC-135244] | 0.65 |  |
| C#C[C@H]1O[C@@H](n2cnc3c(Nc4cc(Br)cc(C(F)(F)F)c4)ncnc32)[C@H](O)[C@@H]1O [TCMDC-135185] | 108.01 |  |
| C=CCc1cc(OC)ccc1OCCCOc1c(C)nc(N)nc1N.Cl [TCMDC-131358] | 0.11 |  |
| Cc1ccc(C2(CN3CCC(NC(=O)c4ccn[nH]4)CC3)CCCCC2)cc1 [TCMDC-124839] |  | 44.59 |
| COc1cc(Nc2ncc3c(C)nc(-c4cccc(Nc5ccc(CN6CCS(=O)(=O)CC6)cc5)c4)n3n2)cc(OC)c1OC [TCMDC-136003] | 176.19 |  |
| COc1ccc2ncc(F)c(NC(=O)C3CCC(NCc4cc5c(F)cccc5[nH]4)CC3)c2n1.Cl (centres unmarked) [TCMDC-136354] |  | 14.39 |
| O=c1c2ccccc2[nH]c2cc(Cl)ccc12 [TCMDC-123989] | 43.00 |  |
| CCOC(=O)N1CCN(CCCCNc2c3ccc(Cl)cc3nc3ccc(OC)cc23)CC1.Cl [TCMDC-137579] |  | 1.22 |
| COc1ccc2nc(-c3cc(-c4ccc(NC(C)=O)cc4)cnc3N)[nH]c2c1 [TCMDC-135365] | 27.20 |  |
| COc1ccc2nc3cc(Cl)ccc3c(NCCN(C)C)c2c1 [TCMDC-139093] |  | 7.20 |
| COc1coc(C(=O)NC2CCN(CC3(c4ccc(Cl)cc4)CCC3)CC2)c1OC [TCMDC-124835] | 58.39 |  |
| CCOc1ccc2[nH]c(C)cc(=NN=Cc3cccnc3)c2c1 [TCMDC-142047] | 3.35 |  |
| CCOC(=O)C(=O)N1c2ccc(OCC)cc2-c2c(ssc2=S)C1(C)C [TCMDC-124090] | 49.72 |  |
| Cc1cc(C(=O)OCC(=O)Nc2c(C)n(C)n(-c3ccccc3)c2=O)c(C)n1-c1ccc(F)cc1 [TCMDC-123794] | 92.88 |  |
| Cc1cc(=O)c(-c2ccc(Oc3cccc(C(F)(F)F)c3)cc2)c(C)[nH]1 [TCMDC-133308] |  | 19.71 |
| COc1ccc2ncc(F)c(CCN3CCC(NCc4ccc5c(c4)CCO5)CC3)c2n1.Cl [TCMDC-135491] |  | 9.33 |
| COc1ccc2nccc([C@@H](O)CN3CCC(NC(=O)c4cc5c(F)cc(F)cc5[nH]4)CC3)c2n1 [TCMDC-134945] |  | 25.22 |
| C=CCOc1ccc(-c2c(C)[nH]c(C)c(Br)c2=O)cc1 [TCMDC-135042] |  | 10.12 |
| CC(C)Nc1nc(NC2CCCCC2)nc(N2CCCCCCC2)n1 [TCMDC-139688] | 10.16 |  |

| Structure (SMILES) | Assay tox ratio Pb ODA | Assay tox ratio Pb ODA (red: <10-fold selectivity; green: >10-fold) |
| --- | --- | --- |
| N#Cc1cc([N+](=O)[O-])ccc1-n1nc(C(N)=O)n(Cc2cccc(F)c2)c1=S [TCMDC-134721] | 30.88 |  |
| CC(=O)c1ccc2nc[nH]c(=O)c2c1 [TCMDC-138172] | 7.43 |  |
| COCCn1c(-c2cccc(Cl)c2)nn(-c2ccc([N+](=O)[O-])cc2Cl)c1=S [TCMDC-135130] | 62.50 |  |
| CCOc1cccc(C(=O)Nc2nonc2-c2ccc(OC)c(OC)c2)c1 [TCMDC-125179] | 0.89 |  |
| COc1cc(OC)cc(-c2nn(-c3ccc([N+](=O)[O-])cc3C#N)c(=S)n2Cc2ccco2)c1 [TCMDC-134715] | 62.39 |  |
| Cc1nc(C)c(-c2ccc(Oc3ccc(Cl)c(Cl)c3)cc2)c(O)c1Cl [TCMDC-137396] |  | 137.14 |
| CN1Cc2cc(NC(=O)/C=C/c3ccccc3Cl)ccc2C(C)(C)C1.Cl [TCMDC-139315] | 36.28 |  |
| Cc1cccc2nc(-c3ccc(-c4ccc(CN5CCOCC5)cc4)cc3)[nH]c12.O=C(O)C(F)(F)F [TCMDC-133825] |  | 43.40 |
| COc1cc(Nc2ccc3cc(S(=O)(=O)N4CCCCC4C)ccc3n2)cc(OC)c1OC (centres unmarked) [TCMDC-125163] | 23.19 |  |
| Cc1cc(C(=O)NC2CCN(CC3(c4ccccc4)CCCCC3)CC2)on1 [TCMDC-124832] | 22.01 |  |
| COc1cccc(CNCC(C)(C)c2nc(-c3ccc(Cl)c(O)c3)c(-c3ccncc3)[nH]2)c1.Cl [TCMDC-140687] |  | 1.34 |
| Cl.Oc1cc(-c2nc(-c3ccccc3)[nH]c2-c2ccncc2)ccc1Cl [TCMDC-139660] | 5.57 |  |
| COc1ccc(Nc2ncc(C#N)c(Nc3ccccc3C(N)=O)n2)cc1N1CCN(C)CC1.Cl [TCMDC-134117] |  | 325.76 |
| Cc1nc2c(c([O-])c1Cl)-c1ccc(Oc3cccc(C(F)(F)F)c3)cc1C2=O.[Na+] [TCMDC-136021] | 50.72 |  |
| CCCCN(C)CC#Cc1ccc(-c2ccc3[nH]c(C)c(Br)c(=O)c3c2)cn1 [TCMDC-136285] | 97.68 |  |
| CC[C@@]1(O)C(=O)OCc2c1cc1n(c2=O)Cc2c-1nc1cc3c(cc1c2CN1CCOCC1)OCO3.O=C(O)C(F)(F)F [TCMDC-131876] | 0.37 |  |
| CNCCN(C)C(=O)Oc1c(Br)c(C)nc(C)c1-c1ccc(Oc2ccc(OC(F)(F)F)cc2)cc1.Cl [TCMDC-137377] |  | 5.62 |
| CC(=O)Oc1c(Br)c(C)nc(C)c1-c1ccc(Oc2ccc(OC(F)(F)F)cc2)cc1 [TCMDC-137383] |  | 16.80 |
| Cc1[nH]c(C)c(-c2ccc(-c3ccc(Cl)cc3)cc2)c(=O)c1Cl [TCMDC-137416] |  | 23.64 |
| CCCCc1ccc(-c2ccc3[nH]c(C)c(Br)c(=O)c3c2)cc1 [TCMDC-135463] | 3.34 |  |
| COc1ccc(-c2ccc([N+](=O)[O-])cc2C(=O)NCC(C)Oc2ccc(C(F)(F)F)cc2)cc1 (centres unmarked) [TCMDC-132304] | 24.94 |  |
| CCCCCCCc1c(C)nc2cccc(OC)c2c1O [TCMDC-138014] |  | 4.80 |

same assay, conditions: unified cytotox / IC50; <10-fold red, >10-fold green

| Structure (SMILES) | Assay tox ratio Pb ODA |
| --- | --- |
| Nc1nc(N)c2c(ccc3c2ccn3Cc2cccc(F)c2)n1 [TCMDC-137810] | 0.32 |
| Cc1ccc(C)c(CC(=O)N2CCC(n3c(C)nc4ccc(F)cc43)CC2)c1 [TCMDC-124790] | 15.71 |
| Br.CC(CCON1C(N)=NC(N)=NC1(C)C)c1ccc(Cl)c(Cl)c1 (centres unmarked) [TCMDC-123922] | 0.000174 |
| Nc1nc(N)c2c(ccc3c2ccn3Cc2ccccc2)n1 [TCMDC-141977] | 0.51 |
| COc1ccc2nc3cc(Cl)ccc3c(N)c2c1.Cl [TCMDC-125835] | 0.61 |
| Cc1[nH]c(C)c(-c2ccc(Oc3ccc(C(F)(F)F)cc3)cc2)c(=O)c1Br [TCMDC-137406] | 45.35 |
| Nc1nc(N)c2c(ccc3c2ccn3CCCC(F)(F)F)n1 [TCMDC-138622] | 0.06 |
| COc1ccc2ncc(Cl)c(NCC3(O)CCC(NCc4ccc5c(n4)NC(=O)CS5)CC3)c2n1.Cl (centres unmarked) [TCMDC-134671] | 15.49 |
| Cc1[nH]c(C)c(-c2ccc(OCc3cc(F)cc(F)c3)nc2)c(=O)c1Cl [TCMDC-135676] | 3.79 |
| CC(C)(C)CNCC(C)(C)c1nc(-c2ccc(Cl)c(O)c2)c(-c2ccncc2)[nH]1.Cl [TCMDC-140549] | 8.78 |
| Cc1[nH]c(C)c(-c2ccc(-c3ccccc3Cl)nc2)c(=O)c1Cl [TCMDC-136303] | 437.25 |
| Cc1ccnc(NC(c2cccc(Cl)c2Cl)c2ccc3cccnc3c2O)c1 (centres unmarked) [TCMDC-123997] | 6.94 |
| CC(ON1C(N)=NC(N)=NC1(C)C)c1ccccc1 (centres unmarked) [TCMDC-131596] | 0.00716 |
| Cc1[nH]c(C)c(-c2ccc(Oc3ccc(F)cc3)cc2)c(=O)c1Br [TCMDC-137402] | 67.05 |
| Cc1[nH]c(C)c(-c2ccc(-c3cccc(C(F)(F)F)c3)nc2)c(=O)c1Br [TCMDC-135911] | 249.89 |
| Cc1cc(=O)c(-c2cccc(Oc3ccc(Cl)cc3)c2)c(C)[nH]1 [TCMDC-137415] | 50.26 |
| Cl.O=C1CSc2ccc(CNC3CCN(CCc4c(Cl)cnc5ccc(Cl)cc45)CC3)nc2N1 [TCMDC-141959] | 4.21 |
| COc1ccc(Cn2ccc3c4c(N)nc(N)nc4ccc32)cc1 [TCMDC-139862] | 0.0348 |
| CCCC(N)C(=O)NC1CCN(c2c(F)c(N)c3c(=O)c(C(=O)O)cn4c3c2Oc2ccccc2-4)C1.Cl (centres unmarked) [TCMDC-125701] | 2.91 |
| CC(C)(CN)c1nc(-c2ccc(Br)c(O)c2)c(-c2ccncc2)[nH]1.Cl [TCMDC-140680] | 24.14 |
| CCOc1ccc(-c2nonc2NC(=O)c2cccc(Cl)c2)cc1OCC [TCMDC-125200] | 3.13 |
| COc1ccc(C[C@H]2NC[C@H](O)[C@H]2OC(C)=O)cc1 [TCMDC-125504] | 5.78 |
| Cn1nc(C(F)(F)F)c(-c2ccc(Br)cc2)c1NC(=O)Cc1ccccc1F [TCMDC-123792] | 47.09 |
